Experimental findings from paper PMC5056749 are described below.

Sequences of proteins named here, by UniProt entry; tags and fusion partners are left off.
UniProt P17096: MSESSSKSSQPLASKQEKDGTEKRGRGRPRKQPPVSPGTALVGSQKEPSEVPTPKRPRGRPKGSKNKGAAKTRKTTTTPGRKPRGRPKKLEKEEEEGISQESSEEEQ
UniProt P78527: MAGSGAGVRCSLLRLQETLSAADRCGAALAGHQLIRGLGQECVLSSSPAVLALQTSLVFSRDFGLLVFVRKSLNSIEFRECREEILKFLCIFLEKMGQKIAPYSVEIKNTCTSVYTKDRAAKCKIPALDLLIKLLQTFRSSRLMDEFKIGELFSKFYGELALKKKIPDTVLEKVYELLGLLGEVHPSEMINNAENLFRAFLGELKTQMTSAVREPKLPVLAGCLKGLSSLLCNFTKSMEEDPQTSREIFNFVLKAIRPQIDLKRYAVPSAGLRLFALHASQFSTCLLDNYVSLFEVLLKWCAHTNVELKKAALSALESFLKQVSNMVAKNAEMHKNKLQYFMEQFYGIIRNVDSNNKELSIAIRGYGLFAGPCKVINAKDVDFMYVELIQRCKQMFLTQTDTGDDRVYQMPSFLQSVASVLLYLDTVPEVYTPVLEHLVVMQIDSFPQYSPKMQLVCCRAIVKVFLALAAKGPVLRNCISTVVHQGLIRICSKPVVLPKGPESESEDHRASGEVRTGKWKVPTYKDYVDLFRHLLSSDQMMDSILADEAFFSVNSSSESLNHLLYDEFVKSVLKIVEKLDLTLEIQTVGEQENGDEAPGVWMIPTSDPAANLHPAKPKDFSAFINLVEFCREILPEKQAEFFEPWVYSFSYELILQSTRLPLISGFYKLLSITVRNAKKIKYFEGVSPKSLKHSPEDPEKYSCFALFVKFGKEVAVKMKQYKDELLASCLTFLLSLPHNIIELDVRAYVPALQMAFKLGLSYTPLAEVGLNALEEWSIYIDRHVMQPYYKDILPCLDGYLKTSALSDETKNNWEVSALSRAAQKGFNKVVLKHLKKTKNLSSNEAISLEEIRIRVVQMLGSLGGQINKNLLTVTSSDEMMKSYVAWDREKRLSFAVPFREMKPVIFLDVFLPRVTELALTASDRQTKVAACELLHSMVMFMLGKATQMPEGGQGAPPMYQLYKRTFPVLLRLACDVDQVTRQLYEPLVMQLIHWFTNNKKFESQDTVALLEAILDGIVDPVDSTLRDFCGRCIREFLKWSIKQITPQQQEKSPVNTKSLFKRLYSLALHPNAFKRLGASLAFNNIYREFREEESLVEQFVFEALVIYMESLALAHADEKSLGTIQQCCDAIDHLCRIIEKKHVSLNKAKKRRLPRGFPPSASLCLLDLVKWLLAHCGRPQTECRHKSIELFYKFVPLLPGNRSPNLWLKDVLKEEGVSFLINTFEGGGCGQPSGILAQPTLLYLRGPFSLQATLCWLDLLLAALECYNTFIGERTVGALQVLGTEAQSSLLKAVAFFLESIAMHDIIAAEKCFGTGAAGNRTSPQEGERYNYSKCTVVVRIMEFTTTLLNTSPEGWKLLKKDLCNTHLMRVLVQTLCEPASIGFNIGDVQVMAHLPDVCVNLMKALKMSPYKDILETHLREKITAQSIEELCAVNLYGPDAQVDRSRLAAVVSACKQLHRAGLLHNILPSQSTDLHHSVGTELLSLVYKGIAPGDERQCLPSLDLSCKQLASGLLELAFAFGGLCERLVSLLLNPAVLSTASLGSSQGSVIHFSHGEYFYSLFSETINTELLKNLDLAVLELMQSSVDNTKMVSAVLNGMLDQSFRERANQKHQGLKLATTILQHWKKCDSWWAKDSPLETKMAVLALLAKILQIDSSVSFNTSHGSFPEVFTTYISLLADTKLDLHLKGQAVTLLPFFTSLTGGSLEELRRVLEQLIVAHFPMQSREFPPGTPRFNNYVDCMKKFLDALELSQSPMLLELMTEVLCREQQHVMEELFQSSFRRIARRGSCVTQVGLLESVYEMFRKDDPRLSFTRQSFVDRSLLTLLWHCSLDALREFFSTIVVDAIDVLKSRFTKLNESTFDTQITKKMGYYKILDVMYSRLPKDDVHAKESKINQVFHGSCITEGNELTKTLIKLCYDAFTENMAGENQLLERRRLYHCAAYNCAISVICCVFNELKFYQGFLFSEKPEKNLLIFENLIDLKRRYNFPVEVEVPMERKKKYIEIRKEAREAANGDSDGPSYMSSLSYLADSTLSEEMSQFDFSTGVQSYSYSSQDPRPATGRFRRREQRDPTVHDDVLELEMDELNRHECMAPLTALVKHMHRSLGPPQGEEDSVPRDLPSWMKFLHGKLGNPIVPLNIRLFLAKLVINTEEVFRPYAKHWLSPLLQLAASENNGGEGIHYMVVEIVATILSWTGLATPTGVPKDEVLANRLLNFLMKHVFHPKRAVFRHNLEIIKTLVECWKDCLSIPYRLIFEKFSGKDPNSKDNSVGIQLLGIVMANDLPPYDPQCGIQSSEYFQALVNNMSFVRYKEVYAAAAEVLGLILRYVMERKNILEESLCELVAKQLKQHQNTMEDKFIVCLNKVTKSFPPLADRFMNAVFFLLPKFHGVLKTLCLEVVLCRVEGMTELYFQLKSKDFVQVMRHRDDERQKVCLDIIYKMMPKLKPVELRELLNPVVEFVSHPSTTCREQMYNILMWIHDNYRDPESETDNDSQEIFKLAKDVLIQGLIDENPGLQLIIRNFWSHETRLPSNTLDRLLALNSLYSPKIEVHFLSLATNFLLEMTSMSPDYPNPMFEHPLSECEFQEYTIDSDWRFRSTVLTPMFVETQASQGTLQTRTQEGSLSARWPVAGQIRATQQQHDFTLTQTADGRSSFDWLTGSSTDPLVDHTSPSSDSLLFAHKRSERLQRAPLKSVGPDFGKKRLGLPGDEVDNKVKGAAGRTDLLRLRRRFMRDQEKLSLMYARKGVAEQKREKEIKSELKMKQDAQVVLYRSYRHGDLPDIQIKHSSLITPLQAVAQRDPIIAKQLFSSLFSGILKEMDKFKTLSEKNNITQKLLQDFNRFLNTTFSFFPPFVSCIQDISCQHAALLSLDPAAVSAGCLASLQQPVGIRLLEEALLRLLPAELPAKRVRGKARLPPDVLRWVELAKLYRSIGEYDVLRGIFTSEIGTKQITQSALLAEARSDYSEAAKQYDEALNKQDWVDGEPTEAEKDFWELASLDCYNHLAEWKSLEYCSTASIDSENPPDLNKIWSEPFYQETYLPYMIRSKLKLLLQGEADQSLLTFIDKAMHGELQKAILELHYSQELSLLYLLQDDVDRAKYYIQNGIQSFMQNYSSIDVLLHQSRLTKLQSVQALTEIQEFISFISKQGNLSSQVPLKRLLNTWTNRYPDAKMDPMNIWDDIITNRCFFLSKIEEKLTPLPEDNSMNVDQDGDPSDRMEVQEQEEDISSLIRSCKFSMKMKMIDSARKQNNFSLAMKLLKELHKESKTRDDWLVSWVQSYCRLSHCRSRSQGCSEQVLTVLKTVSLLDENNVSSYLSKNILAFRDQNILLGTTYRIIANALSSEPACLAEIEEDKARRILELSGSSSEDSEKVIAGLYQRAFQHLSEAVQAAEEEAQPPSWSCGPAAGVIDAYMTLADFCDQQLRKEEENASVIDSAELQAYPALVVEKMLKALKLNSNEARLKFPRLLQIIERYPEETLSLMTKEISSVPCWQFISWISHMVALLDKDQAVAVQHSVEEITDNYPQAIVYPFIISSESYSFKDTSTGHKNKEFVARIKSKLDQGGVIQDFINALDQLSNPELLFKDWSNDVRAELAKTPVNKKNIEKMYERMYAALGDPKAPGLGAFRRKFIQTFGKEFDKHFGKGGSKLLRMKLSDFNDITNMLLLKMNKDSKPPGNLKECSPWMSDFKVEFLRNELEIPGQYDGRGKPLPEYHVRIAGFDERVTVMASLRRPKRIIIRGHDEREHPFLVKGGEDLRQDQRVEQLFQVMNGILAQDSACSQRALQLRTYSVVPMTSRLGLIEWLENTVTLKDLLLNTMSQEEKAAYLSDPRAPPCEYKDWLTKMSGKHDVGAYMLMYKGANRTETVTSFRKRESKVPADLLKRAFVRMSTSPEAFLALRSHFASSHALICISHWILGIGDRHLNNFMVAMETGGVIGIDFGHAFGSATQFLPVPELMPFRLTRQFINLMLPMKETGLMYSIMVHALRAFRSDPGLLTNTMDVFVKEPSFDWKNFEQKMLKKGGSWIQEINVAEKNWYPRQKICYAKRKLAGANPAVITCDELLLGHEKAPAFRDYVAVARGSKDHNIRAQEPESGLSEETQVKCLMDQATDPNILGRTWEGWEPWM
UniProt P13010: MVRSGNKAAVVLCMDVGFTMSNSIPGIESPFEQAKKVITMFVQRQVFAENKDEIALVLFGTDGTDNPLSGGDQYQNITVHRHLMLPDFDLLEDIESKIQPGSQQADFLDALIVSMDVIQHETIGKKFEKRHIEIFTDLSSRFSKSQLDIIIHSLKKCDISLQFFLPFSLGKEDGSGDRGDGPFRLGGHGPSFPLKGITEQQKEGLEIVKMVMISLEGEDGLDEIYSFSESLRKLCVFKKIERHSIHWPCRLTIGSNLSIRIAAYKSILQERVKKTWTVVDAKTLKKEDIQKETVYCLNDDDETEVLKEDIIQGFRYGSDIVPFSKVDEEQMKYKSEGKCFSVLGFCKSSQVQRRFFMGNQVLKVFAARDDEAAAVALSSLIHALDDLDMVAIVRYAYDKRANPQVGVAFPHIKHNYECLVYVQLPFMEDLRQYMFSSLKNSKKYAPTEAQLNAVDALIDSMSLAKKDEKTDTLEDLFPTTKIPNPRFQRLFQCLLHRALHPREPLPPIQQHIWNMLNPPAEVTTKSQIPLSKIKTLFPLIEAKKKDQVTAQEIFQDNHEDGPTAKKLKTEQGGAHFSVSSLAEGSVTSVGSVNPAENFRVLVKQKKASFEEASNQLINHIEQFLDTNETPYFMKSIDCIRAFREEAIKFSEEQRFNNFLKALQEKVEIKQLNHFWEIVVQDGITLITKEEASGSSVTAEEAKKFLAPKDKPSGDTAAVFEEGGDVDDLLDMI

Experiment [1] deals with HMGA1a fused to MBP (Maltose Binding Protein) (human) (UniProt P17096). Briefly: pull-down; co-affinity purification (Co-AP): MBP-HMGA1a or MBP alone expressed in HEK 293T cells by transient transfection, lysates incubated with amylose resin, bound proteins eluted with SDS sample buffer; western blot for Ku70, Ku80, Ligase IV and DNA-PKcs. A general note: Immunoblotting shows a protein as a band on a membrane.

Experiment [2] concerns the target HMGA1 (High Mobility Group A1), endogenous (human (endogenous in MDA-MB-231)) (UniProt P17096). The experiment in a line: co-IP; endogenous proteins; 500 ug MDA-MB-231 lysate, untreated or incubated with 50 ug/ml ethidium bromide (complex still present at lower levels); precipitated with 4 ug rabbit polyclonal anti-HMGA1 (aspecific IgG as control); immunoblot for Ku70 and Ku80.

No constants are given. Whether binding was seen depends on the method and setting. In cells and extracts the contact can be indirect. Some entries that bind do so weakly or less than the wild type.

As to “DNA-PKcs, the catalytic subunit of DNA-PK (DNA-dependent Protein Kinase) (from UniProt P78527 1-4128) (enzyme)”, the binding entry in experiment [1] is recorded as “binds”. Turning to Ku80 (from UniProt P13010 1-732), the binding result in experiment [2] and in experiment [1] was “binds” each time.
